The experiment addresses Flag-tagged VHL (human) (UniProt P40337). Description: affinity purification with mass spectrometry; whole cell lysates of RCC4 cells stably expressing Flag-VHL and control, immunoprecipitated with anti-Flag antibodies, LC-MS/MS.

These are yes or no findings as the source states them, for the method shown. Binding seen in cells or lysates may run through a third protein. A yes stands for co-enrichment or nearness to the bait. Other partners may have been found.

B1: ATF7IP (protein, UniProt Q6VMQ6 1-1270)
chain: MDSLEEPQKKVFKARKTMRVSDRQQLEAVYKVKEELLKTDVKLLNGNHENGDLDPTSPLENMDYIKDKEEVNGIEEICFDPEGSKAEWKETPCILSVNVKNKQDDDLNCEPLSPHNITPEPVSKLPAEPVSGDPAPGDLDAGDPASGVLASGDSTSGDPTSSEPSSSDAASGDATSGDAPSGDVSPGDATSGDATADDLSSGDPTSSDPIPGEPVPVEPISGDCAADDIASSEITSVDLASGAPASTDPASDDLASGDLSSSELASDDLATGELASDELTSESTFDRTFEPKSVPVCEPVPEIDNIEPSSNKDDDFLEKNGADEKLEQIQSKDSLDEKNKADNNIDANEETLETDDTTICSDRPPENEKKVEEDIITELALGEDAISSSMEIDQGEKNEDETSADLVETINENVIEDNKSENILENTDSMETDEIIPILEKLAPSEDELTCFSKTSLLPIDETNPDLEEKMESSFGSPSKQESSESLPKEAFLVLSDEEDISGEKDESEVISQNETCSPAEVESNEKDNKPEEEEQVIHEDDERPSEKNEFSRRKRSKSEDMDNVQSKRRRYMEEEYEAEFQVKITAKGDINQKLQKVIQWLLEEKLCALQCAVFDKTLAELKTRVEKIECNKRHKTVLTELQAKIARLTKRFEAAKEDLKKRHEHPPNPPVSPGKTVNDVNSNNNMSYRNAGTVRQMLESKRNVSESAPPSFQTPVNTVSSTNLVTPPAVVSSQPKLQTPVTSGSLTATSVLPAPNTATVVATTQVPSGNPQPTISLQPLPVILHVPVAVSSQPQLLQSHPGTLVTNQPSGNVEFISVQSPPTVSGLTKNPVSLPSLPNPTKPNNVPSVPSPSIQRNPTASAAPLGTTLAVQAVPTAHSIVQATRTSLPTVGPSGLYSPSTNRGPIQMKIPISAFSTSSAAEQNSNTTPRIENQTNKTIDASVSKKAADSTSQCGKATGSDSSGVIDLTMDDEESGASQDPKKLNHTPVSTMSSSQPVSRPLQPIQPAPPLQPSGVPTSGPSQTTIHLLPTAPTTVNVTHRPVTQVTTRLPVPRAPANHQVVYTTLPAPPAQAPLRGTVMQAPAVRQVNPQNSVTVRVPQTTTYVVNNGLTLGSTGPQLTVHHRPPQVHTEPPRPVHPAPLPEAPQPQRLPPEAASTSLPQKPHLKLARVQSQNGIVLSWSVLEVDRSCATVDSYHLYAYHEEPSATVPSQWKKIGEVKALPLPMACTLTQFVSGSKYYFAVRAKDIYGRFGPFCDPQSTDVISSTQSS
With B1, the binding result is “binds”.

Source of the values: article PMC10639076.
